PubChem BioAssay AID1508588 – Peter MacCallum Cancer Centre, 2020
Here is an unselected part of about 18,000 deposited reagents. 790 of all reagents (4.4%) count as active. 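Calls rest on a combination of fold-change classes in drug and vehicle arms, not all shown here.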 No sequences are given here.

Assay: 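Which gene losses make BRAF-mutant melanoma cells more responsive to vemurafenib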 (primary screen)
Cell system: human WM266.4 melanoma cells (BRAF V600 mutant)
Reagents: siRNA pool against human genes, 40 nM
Duration: 96 h from transfection to read-out
Treatment: vemurafenib 300 nM (about IC25), added 48 h after transfection, for 48 h; comparison arm got DMSO vehicle only
Read-out: 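Ratios to non-targeting siRNA for cell gain, counted as DAPI nuclei after minus before drug and averaged over two replicates, and for absorbance-read medium lactate per cell; both binned into fold-change classes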
Scale: cell gain with vemurafenib: higher = more cell gain than with non-targeting siRNA; lactate per cell with vemurafenib: higher = more lactate made per cell
Call rule: 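Enhancement is called by pairing each knock-down's vehicle-arm and drug-arm fold-change classes for viability or glycolysis; which class combinations qualify is not given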
Meaning of the calls: active = enhances vemurafenib effect; inactive = no enhancement seen

| gene | cell gain with vemurafenib | lactate per cell with vemurafenib | Outcome |
| --- | --- | --- | --- |
| ZXDC | 0.31 | 0.92 | inactive |
| HCCS | 0.33 | 1.86 | inactive |
| SPARC | 0.79 | 0.15 | active |
| LILRB5 | 0.9 | 0.67 | inactive |
| LPO | 0.55 | 0.61 | inactive |
| NDST1 | 0.61 | 0.28 | inactive |
| WDR54 | 0.56 | 1.06 | inactive |
| TREML1 | 0.1 | 1.89 | inactive |
| CEACAM21 | 0.35 | 0.75 | inactive |
| SERINC4 | 0.48 | 1.4 | inactive |
| SYNPO2L | 0.18 | 0.46 | active |
| ATP6V0C | 0.4 | 1.41 | inactive |
| ALDH6A1 | 1.01 | 0.81 | inactive |
| ATP5IF1 | 0.73 | 0.97 | inactive |
| ASB4 | 0.6 | 0.97 | inactive |
| RAB3D | 0.87 | 0.75 | inactive |
| OSBPL10 | 0.74 | 1.19 | inactive |
| SEMG1 | 1.11 | 0.62 | inactive |
| KRT71 | 0.06 | 0.44 | inactive |
| CCDC57 | 0.97 | 0.79 | inactive |
| NEDD4L | 0.62 | 0.57 | inactive |
| H2BC21 | 0.47 | 1.25 | inactive |
| SAP30 | 1.19 | 0.32 | inactive |
| ZFP37 | 0.55 | 0.68 | inactive |
| NSL1 | 0.77 | 1.12 | inactive |
| NOBOX | 0.44 | 1.92 | inactive |
| XPO7 | 0.49 | 0.8 | inactive |
| PGM2 | 0.61 | 0.84 | inactive |
| PIN4 | 0.48 | 1.27 | inactive |
| CKB | 0.75 | 1 | inactive |
| TMEM131L | 1 | 0.66 | inactive |
| PDCL3 | 0.44 | 1.29 | inactive |
| SACK1C | 0.22 | 1.52 | inactive |
| SGK1 | 1.15 | 0.92 | inactive |
| KYAT1 | 0.91 | 0.85 | inactive |
| DYRK1B | 0.45 | 1.2 | inactive |
| SHISA5 | 0.64 | 0.3 | inactive |
| CDH6 | 0.92 | 1.04 | inactive |
| HOXC12 | 0.49 | 0.9 | inactive |
| SAMD4A | 0.94 | 0.58 | inactive |
| TMEFF2 | 0.8 | 0.61 | inactive |
| SIGLECL1 | 0.27 | 2.14 | inactive |
| WDR24 | 1.04 | 0.74 | inactive |

An excerpt from above, reduced to “cell gain with vemurafenib”:
H2BC21	0.47
SAP30	1.19
ZFP37	0.55
NSL1	0.77
NOBOX	0.44
XPO7	0.49
PGM2	0.61
PIN4	0.48
CKB	0.75
TMEM131L	1
PDCL3	0.44
SACK1C	0.22
SGK1	1.15

Additional results follow:
| gene | cell gain with vemurafenib | lactate per cell with vemurafenib | Outcome |
| --- | --- | --- | --- |
| S100A7 | 0.5 | 1.73 | inactive |
| RLN1 | 0.85 | 0.8 | inactive |
| NPY4R | 0.59 | 0.57 | inactive |
| DIDO1 | 0.25 | 0.88 | inactive |
| DHODH | 0.65 | 0.4 | inactive |
| RALGAPA1 | 0.09 | 2.38 | inactive |
| IGDCC4 | 0.89 | 0.9 | inactive |
| KNL1 | 0.43 | 1.66 | inactive |
| CEP55 | 0.47 | 1.25 | inactive |
| RPRD2 | 1.06 | 0.9 | inactive |
| ASB5 | 0.75 | 0.89 | inactive |
| SLC12A8 | 0.77 | 0.9 | inactive |
| ZNF383 | 0.71 | 0.42 | inactive |
| FAU | 0.05 | 0.88 | inactive |
| MARCKS | 0.37 | 1.62 | inactive |
| SRCIN1 | 0.32 | 1.27 | inactive |
| FTMT | 0.57 | 0.9 | inactive |
| KLHL2 | 0.59 | 0.72 | inactive |
| MCCD1 | 0.99 | 1.32 | inactive |
| MMP15 | 0.23 | 1.06 | inactive |
| DUT | 0.96 | 1.1 | inactive |
| TMEM176B | 0.84 | 0.83 | inactive |
| GCNT1 | 0.29 | 2.41 | inactive |
| RGS1 | 0.02 | 0.5 | inactive |
| CD47 | 0.48 | 1.06 | inactive |
| TRIM35 | 0.23 | 2.54 | inactive |
| KIR2DL5A | 0.26 | 1.86 | inactive |
| LTBP2 | 0.1 | 2.12 | inactive |
| QPRT | 0.05 | 0.63 | active |
| RACGAP1 | 0.25 | 2.02 | inactive |
| KATNIP | 0.53 | 0.54 | inactive |
| RAPGEF4 | 0.85 | 0.23 | inactive |
| TGM7 | 0.5 | 0.58 | inactive |
| PFDN1 | 0.13 | 1.87 | inactive |
| MS4A4A | 0.35 | 1.12 | inactive |
| SLC18A2 | 0.6 | 0.93 | inactive |
| DBX2 | 0.27 | 1.57 | inactive |
| RAX | 0.68 | 0.81 | inactive |
| LHX3 | 0.53 | 0.66 | inactive |
| MYO1C | 0.82 | 0.61 | inactive |
| SPRN | 1.03 | 0.7 | inactive |
